Data published in PubChem BioAssay AID485298 (National Center for Advancing Translational Sciences (NCATS), 2010).
Hit rate of the full screen: of about 320,000 compounds, about 740 (0.23%) were called active. Inconclusive means that the source gave no clear call. Such entries were picked first, then a sample of the others. Calls follow the shape of the dose curve; as a rule, active = well fitted activation curve with a large enough effect; inconclusive = small, poorly fitted or top-dose-only effect; inactive = no such curve, though single readings can be large or run the other way. Potencies beside an inconclusive call are fits to weak or partial responses and may not hold up.
Potency is read from the fitted curve at half-maximal effect.

Test: qHTS Assay for Small Molecule Inhibitors of Mitochondrial Division or Activators of Mitochondrial Fusion; also: nearly all actives have a fitted effect of over 45% in size;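 as to growth rescue (activation): temperature-sensitive fusion mutants such as fzo1-1 at 37 °C on non-fermentable ethanol glycerol medium; % of control where 0% means no effect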
Conditions: S. cerevisiae fusion-defective mutant growth rescue, CellTiterGlo 48 h; growth rescue (activation): at 46.1 µM (top of the series) unless noted
Procedure, shortened: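 Compounds are tested for their ability to restore growth of mitochondrial fusion-defective yeast strains at non-permissive 37C in YPEG medium over 48 hours. Viability is quantified by luciferase luminescence.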
In the case of Cn1cccc1CNC(=O)Nc1ccc(Cl)cc1, the “growth rescue (activation)” value was inactive: -3.03%. With COc1ccc2cc([C@H](C)C(=O)O)ccc2c1 the Potency was inconclusive: 18.4 µM [activator, single point]. For Clc1ccc(C2=CC(c3ccco3)n3ncnc3N2)cc1 (configuration not stated), the “growth rescue (activation)” value was inactive: 3.28%. In the case of COC(=O)c1ccc(C(=O)OC)c(NC(=O)COC(=O)C2CCCCC2)c1, the “growth rescue (activation)” value was inactive: 3.21%. With Cc1nn(-c2ccccc2)c2[nH]c(C(F)(F)F)cc(=O)c12 the Potency was inconclusive: 17.8 µM [activator, partial curve]. With O=C(NCc1csc(-c2ccccc2)n1)c1ccco1 the “growth rescue (activation)” value was inactive: 0.0115%. For CC(C)CC(=O)n1sc(NC(=O)c2ccccc2)nc1=O, the “growth rescue (activation)” value was inactive: 7.14%. In the case of O=C(Nc1cccnc1)c1cc2c(s1)-c1ccccc1OC2, the Potency was inconclusive: 28.2 µM [activator, single point]. In the case of COc1ccc2oc3cc(C)[n+]([O-])c(-c4ccc(C)cc4)c3c2c1, the Potency was inconclusive: 11.2 µM [activator, partial curve]. In the case of CSc1ncccc1C(=O)NC1CCCc2c1cnn2-c1ccc(C)c(C)c1 (configuration not stated), the “growth rescue (activation)” value was inactive: 1.05%. For COc1ccccc1N1CCN(CCN(C(=O)c2ccc(I)cc2)c2ccccn2)CC1, the Potency was inconclusive: 29.1 µM [activator, single point]. In the case of CCCCOc1cccc(OCC(=O)Nc2nc3ccccc3[nH]2)c1, the Potency was inconclusive: 35.5 µM [activator, single point]. In the case of CCc1cc2ccc(OC)cc2nc1SCC(=O)N1CCN(C(=O)c2ccco2)CC1, the Potency was inconclusive: 17.8 µM [activator, single point]. For COC(=O)[C@@]1(Cc2ccc(F)cc2)[C@H]2c3cc(C(=O)N(C)C)n(CCc4ccc(OC)c(Br)c4)c3C[C@H]2CN1C(=O)c1ccccc1, the Potency was inconclusive: 22.4 µM [activator, single point]. In the case of Cc1ccccc1-n1c(SCC(=O)Nc2ccccc2Cl)nc2n[nH]c(C)c2c1=N, the Potency was active: 11.2 µM. In the case of CC(C)(C)OC(=O)N1CCN(C(=O)c2[nH]cnc2C(=O)N[C@@H](Cc2ccccc2)C(=O)OCc2ccccc2)CC1, the “growth rescue (activation)” value was inactive: -2.55%. For Cc1ncc([N+](=O)[O-])n1CC(C)O (configuration not stated), the Potency was “inactive”. For Cc1cccc2nc(-c3cccc(NC(=O)Cc4ccccc4)c3)cn12, the Potency was inconclusive: 35.5 µM [activator, single point]. In the case of C/C=C(/C(=C/C)c1ccc(O)cc1)c1ccc(O)cc1, the “growth rescue (activation)” value was inactive: 26.5%. For O=C(NC1CCCCC1)C(c1ccncc1)N(Cc1ccccc1)C(=O)c1ccc(-c2ccccc2)[nH]1 (configuration not stated), the “growth rescue (activation)” value was inactive: -2.92%. For Cc1cc(-c2c(C)[nH]n(-c3ccccc3)c2=O)n[nH]1, the “growth rescue (activation)” value was inactive: 6.17%. For Clc1ccc(C[n+]2csc3ccccc32)cc1, the Potency was active: 11.2 µM. For NC(=Nc1ccccc1)NC(=O)c1nc(Cl)c(N)nc1N, the Potency was inconclusive: 18.4 µM [activator, single point]. With COc1ccc(CN(C)S(=O)(=O)c2nnc(NC(=O)c3cccc(OC)c3)s2)cc1 the Potency was inconclusive: 1.58 µM [activator, partial curve, poor fit]. With CCOc1ccc(Nc2nc(Cl)nc(N3CCN(c4ccc(OC)cc4)CC3)n2)cc1 the Potency was inconclusive: 10 µM [activator, partial curve]. In the case of O=C(C#Cc1ccccc1)c1cccc([N+](=O)[O-])c1, the “growth rescue (activation)” value was inactive: -19%. For Cc1nc(-c2ccccc2)sc1C1(C)CC(c2c(Cl)cccc2Cl)=NO1 (configuration not stated), the Potency was inconclusive: 8.91 µM [activator, partial curve]. In the case of CCCN(CC(=O)Nc1ccccc1C)CC(=O)Nc1ccc(Br)cc1F, the “growth rescue (activation)” value was inactive: -2%. With CC(C)c1ccc(S(=O)(=O)/N=C2\C=C(NS(=O)(=O)c3ccccc3)C(=O)c3ccccc32)cc1 the Potency was inconclusive: 31.6 µM [activator, single point]. In the case of O=C(CSc1nc2ncc(Cl)cc2[nH]1)NCCc1ccc(F)cc1, the Potency was inconclusive: 35.5 µM [activator, partial curve]. In the case of C/C(=N\NC(=S)Nc1ccccc1C)c1ccc(O)cc1, the “growth rescue (activation)” value was inactive: -3.76%. With CN1/C(=C\C(=O)c2cncc(Br)c2)C(C)(C)c2ccccc21 the Potency was inconclusive: 12.6 µM [activator, partial curve]. With CCn1c(NC(=O)C2CCCCC2)nc2ccccc21 the “growth rescue (activation)” value was inactive: 0.0725%. For Cc1ccc(Nc2ccc(C(N)=O)cc2[N+](=O)[O-])cc1C, the Potency was inconclusive: 14.1 µM [activator, partial curve]. For COc1ccc(C(C[N+](=O)[O-])c2c(-c3ccccc3)cc3ccccn23)cc1 (configuration not stated), the Potency was inconclusive: 5.01 µM [activator, single point]. In the case of O=S(=O)(c1ccc(NC(=S)N/N=C/c2c3ccccc3cc3ccccc23)cc1)N1CCOCC1, the “growth rescue (activation)” value was inactive: 5.16%. In the case of O=S(Cc1cc(Oc2ccccc2)nc(-c2ccccc2)n1)c1ccccc1 (configuration not stated), the “growth rescue (activation)” value was inactive: 4.3%. For O=C(O)/C=C/c1ccc(OCc2cccc(F)c2)cc1, the “growth rescue (activation)” value was inactive: -0.924%. With O=C(Nc1ccncc1)c1ccc(Cl)c(S(=O)(=O)N2CCc3ccccc32)c1 the Potency was inconclusive: 17.8 µM [activator, single point]. In the case of CC(=O)Nc1ncc(Cc2cccc(Cl)c2Cl)s1, the Potency was inconclusive: 3.16 µM [activator, single point]. For Clc1ccc(OCc2nc(-c3ccncc3)no2)c(Br)c1, the Potency was inconclusive: 35.5 µM [activator, single point]. For O=C(O)c1ccc(-c2sc(Nc3ccccc3)n[n+]2-c2ccccc2)cc1, the “growth rescue (activation)” value was inactive: 1.5%. With COc1ccccc1C(=O)Nc1cccc(Oc2c(F)c(F)c(F)c(F)c2F)c1 the Potency was inconclusive: 15.8 µM [activator, partial curve]. With Cc1ccc(CNC(=O)c2sc3ccc(S(=O)(=O)N4CCCCC4)cc3c2N)cc1 the Potency was inconclusive: 35.5 µM [activator, single point]. With COc1ccc(C2CC(c3cc(Br)ccc3F)n3nnnc3N2)cc1 (configuration not stated) the Potency was inconclusive: 31.6 µM [activator, single point]. With CC(C)c1csc(CN2CCC(CO)(Cc3ccccc3)CC2)n1 the Potency was inconclusive: 10 µM [activator, partial curve]. With O=C(c1ccccc1Br)N1N=C(c2ccccc2)CC1c1ccccc1F (configuration not stated) the Potency was inconclusive: 17.8 µM [activator, single point].
